From PubChem BioAssay AID2685 (National Center for Advancing Translational Sciences (NCATS), 2010)
This is one part of the list. These are further read-outs of the screen, such as a control signal, another cell line or another target. No call is given for them. The list favours compounds with an active or inconclusive main result. Potencies come from curve fits of mixed quality, noted in brackets.

Assay: qHTS Assay for Lipid Storage Modulators in Drosophila S3 Cells;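 for cell number change: cells counted by Cell Tracker Red CMTPX staining in the red channel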
Conditions: BODIPY lipid droplet fluorescence, 18-24 h; for cell number change: measured here: cell count max response, cells fed with added oleic acid
Summary of the method: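 Drosophila S3 cells got compounds at several concentrations plus oleic acid (400 uM solution). Laser-scanning cytometry with 488 nm excitation read lipid droplets at 500-530 nm and cells at 575-640 nm. Percent activity was relative to 20 uM Triacsin C.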

[1] = measured here: cell number channel AC50, cells fed with added oleic acid
[2] = measured here: lipid fluorescence (Fed channel) AC50, cells fed with added oleic acid

Compound	cell number change [%]	AC50 [1]	AC50 [2]
CN(CCOc1ccccc1)S(=O)(=O)c1ccccc1C#N	-1.23	0.164 µM [rising, full curve, poor fit]	4.11 µM [rising, single point]
c1cncc(CNc2nc(N3CCOCC3)nc(N3CCOCC3)n2)c1	-49.2	25.9 µM [falling, partial curve]	–
CCCCc1nc2ccccc2c(=O)n1NC(=O)c1c(O)c2c(n(CC(C)C)c1=O)CCCC2	3.93	–	3.66 µM [rising, single point]
Cn1c(CSc2ncn[nH]2)nc2ccccc21	2.86	–	–
Cn1nnnc1SCC1=C(C(=O)O)N2C(=O)C(NC(=O)Cn3nc(C(F)F)cc3C3CC3)C2SC1 (stereo not drawn)	4.53	–	0.082 µM [falling, full curve, poor fit]
O=C(Nc1nccs1)c1ccc([N+](=O)[O-])cc1	28.3	–	1.64 µM [rising, full curve, poor fit]
CS(=O)(=O)N1CCN(c2ccc(NC(=O)C(c3ccccc3)c3ccccc3)cc2)CC1	-31.6	23.1 µM [falling, single point]	29.1 µM [falling, single point]
COc1ccc(CNC2CC(=O)N(C)C2=O)cc1 (stereo not drawn)	18.8	–	25.9 µM [falling, partial curve, poor fit]
CC1=NNC(=O)C1CC(=O)N/N=C/C(C)=C/c1ccccc1 (stereo not drawn)	-45.5	32.6 µM [falling, partial curve]	13 µM [falling, partial curve]
O=C(COc1ccc(-c2ccccc2)cc1)NNC(=O)Nc1ccccc1	-2.48	–	0.231 µM [rising, full curve, poor fit]
COC(=O)C1CCN(Cc2ccc(OCCCN3CCN(c4ccc([N+](=O)[O-])cc4)CC3)cc2)CC1	-30	29.1 µM [falling, single point]	29.1 µM [falling, single point]
CCN(c1ccccc1)S(=O)(=O)c1cccc(C(=O)NCCN2CCOCC2)c1	28	–	1.64 µM [rising, partial curve]
O=C(CSc1nnnn1C1CC1)N1CCN(c2ccccc2F)CC1	-10.5	–	0.731 µM [rising, single point]
O=C(Nc1cccc2ncccc12)c1ccc(-c2ccc(Cl)cc2Cl)o1	127	25.9 µM [rising, single point]	29.1 µM [rising, single point]
O=C1c2ccccc2-c2c1cccc2C(=O)N(CCO)CCO	–	–	23.1 µM [falling, partial curve, poor fit]
Cn1cc(C(=O)NC2CCCCC2)c(=O)c2cc(S(=O)(=O)N3CCCC3)ccc21	2.84	–	2.31 µM [rising, full curve]
CCCC(C(=O)NCC1CCCO1)N(Cc1ccco1)C(=O)CNS(=O)(=O)c1ccccc1 (stereo not drawn)	15.4	–	–
CSc1cccc(Nc2ccc(S(=O)(=O)N3CCOCC3)cc2[N+](=O)[O-])c1	-37.9	32.6 µM [falling, single point]	0.116 µM [falling, full curve, poor fit]

Compound	cell number change [%]	AC50 [1]	AC50 [2]
CCCCN(CC)CCNC(=O)c1cc2c(=O)[nH]c3ccc(C)cc3c2s1	59.5	23.1 µM [rising, single point]	11.6 µM [rising, partial curve]
O=C(CSc1nc(Nc2ccccc2)nc(N2CCOCC2)n1)Nc1cc(Cl)ccc1O	-1.16	–	4.61 µM [falling, single point]
COc1ccc(N2C(=O)C3CCCN3C2c2cccc(OC)c2OC)cc1 (stereo not drawn)	-35	–	–
CCC(C)[C@H](NC(=O)[C@@H]1Cc2ccccc2CN1)C(=O)NCc1ccc(OC)cc1 (stereo partly drawn)	8.92	–	–
Cn1nc(-c2ccc(C(=O)Nc3cccnc3)cc2)c2ccccc2c1=O	95	3.26 µM [rising, partial curve]	4.61 µM [rising, partial curve]
CCc1cc2c(NC(Cc3c[nH]c4ccccc34)C(=O)O)nc(C)nc2s1 (stereo not drawn)	35.7	3.66 µM [rising, partial curve]	16.4 µM [rising, partial curve]
Fc1cccc(CNc2ncnc3ccc(-c4ccc5c(c4)OCO5)cc23)c1	-8.78	–	–
COc1ccc(CC(=O)Nc2ccc3c(c2)OCO3)cc1S(=O)(=O)N1CCOCC1	33.1	1.3 µM [rising, full curve, poor fit]	2.31 µM [rising, partial curve]
Cc1ccc(C(=O)N/C(=C\c2cccs2)C(=O)NCC2CCCO2)cc1C (stereo not drawn)	4.62	–	–
CCc1nnc(NC(=O)CCC(=O)Nc2ccccc2)s1	-5.7	–	0.411 µM [falling, partial curve, poor fit]
COc1ccc(S(=O)(=O)N2CCCC2CNC(=O)C(=O)NCc2ccc3c(c2)OCO3)cc1 (stereo not drawn)	-2.01	–	–
Cc1ccc(C(=O)NNC(=S)NC(=O)c2ccco2)cc1	-11	–	32.6 µM [falling, single point]
O=C(Nc1ccc(F)cc1F)c1cccc(S(=O)(=O)N2CCCCC2)c1	-2.2	–	3.26 µM [falling, single point]
O=c1[nH]c2cc3c(cc2cc1CN(Cc1cccnc1)Cc1nnnn1Cc1ccco1)OCCO3	–	–	6.51 µM [rising, single point]
CCOc1ccc(S(=O)(=O)N(CC(=O)Nc2cccnc2)c2ccc(F)cc2)cc1	-39.6	29.1 µM [falling, single point]	–
COC(=O)c1sc(NC(C)=O)c(C(=O)OC)c1C	-7.5	–	1.46 µM [rising, full curve, poor fit]
Cc1cc(N2CCN(S(=O)(=O)c3ccccc3)CC2)c2ccccc2n1	-23.6	–	29.1 µM [rising, single point]
COc1cccc(CNC(=O)CSCC(=O)Nc2cc(C)on2)c1	-50	0.146 µM [falling, full curve, poor fit]	–

Two of these compounds in a different format.

| Compound | cell number change [%] | AC50 [1] | AC50 [2] |
| --- | --- | --- | --- |
| CCc1cc2c(NC(Cc3c[nH]c4ccccc34)C(=O)O)nc(C)nc2s1 (stereo not drawn) | 35.7 | 3.66 µM [rising, partial curve] | 16.4 µM [rising, partial curve] |
| COC(=O)c1sc(NC(C)=O)c(C(=O)OC)c1C | -7.5 | – | 1.46 µM [rising, full curve, poor fit] |
